Measurements taken from US7060795 (KIMBERLY CLARK WORLDWIDE, dated 2006).
These are yes or no findings as the source states them, for the method shown. Some entries that bind do so weakly or less than the wild type.

Amino acid sequences for entries named in this document (tags omitted). Residues count along the entry.
UniProt P14780, residues 107-707: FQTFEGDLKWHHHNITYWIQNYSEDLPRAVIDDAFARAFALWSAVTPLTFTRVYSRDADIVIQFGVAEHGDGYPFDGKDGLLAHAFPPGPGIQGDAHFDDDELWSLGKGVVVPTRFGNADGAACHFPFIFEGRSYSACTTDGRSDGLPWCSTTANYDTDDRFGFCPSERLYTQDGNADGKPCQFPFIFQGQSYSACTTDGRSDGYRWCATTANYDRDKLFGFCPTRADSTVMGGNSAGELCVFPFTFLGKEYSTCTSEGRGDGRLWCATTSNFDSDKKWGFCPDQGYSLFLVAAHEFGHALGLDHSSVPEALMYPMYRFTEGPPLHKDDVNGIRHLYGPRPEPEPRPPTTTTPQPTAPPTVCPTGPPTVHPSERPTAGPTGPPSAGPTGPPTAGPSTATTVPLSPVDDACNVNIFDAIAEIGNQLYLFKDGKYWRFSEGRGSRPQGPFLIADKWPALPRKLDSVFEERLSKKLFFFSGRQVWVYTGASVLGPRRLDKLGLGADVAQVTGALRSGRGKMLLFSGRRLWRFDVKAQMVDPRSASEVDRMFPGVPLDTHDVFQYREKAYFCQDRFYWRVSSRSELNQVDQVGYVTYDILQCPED

Legend:
[1] = biological target: matrix metalloproteinase-9 (MMP-9) (UniProt P14780); assay: size exclusion HPLC (figure legend)
[2] = biological target: matrix metalloproteinase-9 (MMP-9) (UniProt P14780); assay: SPR, MMP-9 on CM-5 chip (figure legend)
MMP-2 = assay: inhibition of hydrolysis of fluoresceinated collagen, Ki from Dixon plots
MMP-3 = assay: as above
MMP-8 = assay: as above
[3] = biological target: matrix metalloproteinase-9 (MMP-9) (UniProt P14780); assay: SPR (BiaCore, CM-5 chip), MMP-9 immobilised, SEQ ID NO:5 polypeptide flowed at 10 uL/min
[4] = biological target: matrix metalloproteinase-9 (MMP-9) (UniProt P14780); assay: analytical gel filtration of the pre-formed complex (BioSelect 125); single species of 80 kDa apparent molecular weight
[5] = biological target: matrix metalloproteinase-9 (MMP-9) (UniProt P14780); assay: analytical gel filtration (BioSelect 125 SEC column, PBS, 0.5 mL/min) after 30 min pre-incubation, against immediate injection

Measured: binding

B1: SEQ ID NO:5 polypeptide (DST; Delta Synthetic TIMP), purified Fraction IV protein (designed binder)
chain: CSCSPVHPQQAFSNADVVIRAKAVSEKEVDSGNDIYGNPIKRIQYEIKQIKMFKGPEKDIEFIYTAPSSAVCGVSLDVGGKKEYCIAGKAEGDGKMHITLCDFICPW
notes: It was expressed in E. coli as an MBP fusion and cleaved with Factor Xa; It is monomeric by gel filtration; Three disulfide bonds; also called DST protein
binds: all assays above
